As usually defined, the IC50 is the concentration needed to halve the response being measured.

Amino acid sequences for entries named in this document (tags omitted).
UniProt Q9GZT9, whole entry: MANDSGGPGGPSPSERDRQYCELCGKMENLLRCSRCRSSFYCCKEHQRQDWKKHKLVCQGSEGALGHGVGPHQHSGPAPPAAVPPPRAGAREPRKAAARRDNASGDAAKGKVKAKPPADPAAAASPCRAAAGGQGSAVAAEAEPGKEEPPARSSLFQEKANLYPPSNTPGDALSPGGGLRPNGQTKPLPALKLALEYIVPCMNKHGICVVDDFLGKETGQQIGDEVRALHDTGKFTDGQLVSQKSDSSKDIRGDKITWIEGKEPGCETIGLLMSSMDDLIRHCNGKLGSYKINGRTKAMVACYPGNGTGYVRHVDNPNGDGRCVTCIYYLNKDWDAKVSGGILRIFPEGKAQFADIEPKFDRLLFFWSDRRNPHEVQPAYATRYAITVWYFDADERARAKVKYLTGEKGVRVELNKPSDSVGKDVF
UniProt Q96KS0, whole entry: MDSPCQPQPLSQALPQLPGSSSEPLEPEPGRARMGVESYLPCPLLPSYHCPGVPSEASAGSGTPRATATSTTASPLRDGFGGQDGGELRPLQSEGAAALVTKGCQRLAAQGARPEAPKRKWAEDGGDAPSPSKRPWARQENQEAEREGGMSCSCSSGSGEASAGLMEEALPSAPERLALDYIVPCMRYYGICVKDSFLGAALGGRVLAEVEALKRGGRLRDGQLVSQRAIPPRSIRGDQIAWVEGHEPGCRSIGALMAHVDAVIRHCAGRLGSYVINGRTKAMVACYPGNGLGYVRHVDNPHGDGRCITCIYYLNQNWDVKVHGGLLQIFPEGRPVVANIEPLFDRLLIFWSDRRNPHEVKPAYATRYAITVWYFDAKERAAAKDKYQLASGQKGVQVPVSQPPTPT

Test [1] concerns the target full-length human PHD2 (Homo sapiens, UniProt Q9GZT9). The test is described as follows: TR-FRET assay, enzymatic IC50 against PHD2. The settings on record: read-out: PHD2 IC50, 5 nM PHD2, 1 μM 2-OG. (In TR-FRET formats the signal depends on donor and acceptor labels being close together.)
For test [2], the target named is full-length human PHD1 (Homo sapiens, UniProt Q96KS0). Briefly: TR-FRET assay, enzymatic IC50 against PHD1. The settings on record: read-out: PHD1 IC50, 15 nM PHD1, 1 μM 2-OG.

The match of structure and compound is tentative.

For `Cc1nn(-c2ccc([S@](=N)(=O)C3CC3)cn2)c(O)c1-c1ccc(C#N)cc1`, the half-inhibitory concentration (IC50) in test [1] and in test [2] was below 100 nM each time.
